# Measured values: article PMC9254885
# No constants are given. Whether binding was seen depends on the method and setting. Binding seen in cells or lysates may run through a third protein. Some binding calls cover weakened binding; strength is not graded here. Sequences can lack the tags named with a protein.
# Target: T1, endogenous CPS1 (HeLa cells) (human (endogenous in HeLa)) (UniProt P31327)
# T1 sequence: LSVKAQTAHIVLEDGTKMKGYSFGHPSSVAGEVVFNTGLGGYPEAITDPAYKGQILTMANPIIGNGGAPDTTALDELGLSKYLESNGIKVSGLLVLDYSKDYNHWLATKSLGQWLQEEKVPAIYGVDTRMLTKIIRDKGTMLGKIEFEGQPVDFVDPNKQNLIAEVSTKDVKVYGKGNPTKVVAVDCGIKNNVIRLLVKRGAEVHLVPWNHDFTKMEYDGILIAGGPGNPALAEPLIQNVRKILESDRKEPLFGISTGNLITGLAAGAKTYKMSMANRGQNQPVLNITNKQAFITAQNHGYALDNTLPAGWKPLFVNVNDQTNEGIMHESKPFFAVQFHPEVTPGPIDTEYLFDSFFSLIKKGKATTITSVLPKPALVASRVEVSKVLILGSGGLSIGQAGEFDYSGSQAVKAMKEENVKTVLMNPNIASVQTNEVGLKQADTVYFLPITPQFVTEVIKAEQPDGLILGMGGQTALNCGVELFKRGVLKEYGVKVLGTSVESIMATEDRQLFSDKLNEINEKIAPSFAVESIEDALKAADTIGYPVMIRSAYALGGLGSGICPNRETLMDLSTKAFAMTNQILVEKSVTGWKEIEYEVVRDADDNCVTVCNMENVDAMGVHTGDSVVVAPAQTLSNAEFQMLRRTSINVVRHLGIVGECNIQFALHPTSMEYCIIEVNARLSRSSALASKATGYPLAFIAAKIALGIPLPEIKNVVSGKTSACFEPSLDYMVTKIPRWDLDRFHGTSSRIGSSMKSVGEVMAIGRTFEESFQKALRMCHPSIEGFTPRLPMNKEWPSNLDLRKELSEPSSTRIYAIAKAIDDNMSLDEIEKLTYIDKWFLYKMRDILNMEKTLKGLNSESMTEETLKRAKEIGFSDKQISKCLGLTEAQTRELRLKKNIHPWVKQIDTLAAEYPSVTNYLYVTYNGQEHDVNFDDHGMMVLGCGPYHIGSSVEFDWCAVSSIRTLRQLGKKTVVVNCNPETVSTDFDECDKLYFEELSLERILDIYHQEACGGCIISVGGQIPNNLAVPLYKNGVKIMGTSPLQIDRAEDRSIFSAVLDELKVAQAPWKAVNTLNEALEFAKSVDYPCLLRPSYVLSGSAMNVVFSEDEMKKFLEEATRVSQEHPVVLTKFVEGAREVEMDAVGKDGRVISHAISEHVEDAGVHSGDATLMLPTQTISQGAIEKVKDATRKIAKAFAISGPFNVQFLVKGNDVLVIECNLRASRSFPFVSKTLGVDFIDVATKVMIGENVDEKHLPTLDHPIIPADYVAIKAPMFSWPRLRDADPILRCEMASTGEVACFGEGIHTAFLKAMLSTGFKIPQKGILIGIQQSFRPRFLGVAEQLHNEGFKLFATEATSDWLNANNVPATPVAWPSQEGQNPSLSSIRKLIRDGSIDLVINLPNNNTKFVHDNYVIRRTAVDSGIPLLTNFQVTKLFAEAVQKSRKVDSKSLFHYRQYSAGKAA
# Assay: co-IP; FLAG-tagged wild-type, D177N or Y891F OGA overexpressed in HeLa cells; co-IP with anti-CPS1 and anti-FLAG antibody; CPS1 endogenous
binder,measurement,value
"FLAG-tagged wild-type OGA (O-GlcNAcase) (enzyme, UniProt O60502 1-916) MVQKESQATLEERESELSSNPAASAGASLEPPAAPAPGEDNPAGAGGAAVAGAAGGARRFLCGVVEGFYGRPWVMEQRKELFRRLQKWELNTYLYAPKDDYKHRMFWREMYSVEEAEQLMTLISAAREYEIEFIYAISPGLDITFSNPKEVSTLKRKLDQVSQFGCRSFALLFDDIDHNMCAADKEVFSSFAHAQVSITNEIYQYLGEPETFLFCPTEYCGTFCYPNVSQSPYLRTVGEKLLPGIEVLWTGPKVVSKEIPVESIEEVSKIIKRAPVIWDNIHANDYDQKRLFLGPYKGRSTELIPRLKGVLTNPNCEFEANYVAIHTLATWYKSNMNGVRKDVVMTDSEDSTVSIQIKLENEGSDEDIETDVLYSPQMALKLALTEWLQEFGVPHQYSSRQVAHSGAKASVVDGTPLVAAPSLNATTVVTTVYQEPIMSQGAALSGEPTTLTKEEEKKQPDEEPMDMVVEKQEETDHKNDNQILSEIVEAKMAEELKPMDTDKESIAESKSPEMSMQEDCISDIAPMQTDEQTNKEQFVPGPNEKPLYTAEPVTLEDLQLLADLFYLPYEHGPKGAQMLREFQWLRANSSVVSVNCKGKDSEKIEEWRSRAAKFEEMCGLVMGMFTRLSNCANRTILYDMYSYVWDIKSIMSMVKSFVQWLGCRSHSSAQFLIGDQEPWAFRGGLAGEFQRLLPIDGANDLFFQPPPLTPTSKVYTIRPYFPKDEASVYKICREMYDDGVGLPFQSQPDLIGDKLVGGLLSLSLDYCFVLEDEDGICGYALGTVDVTPFIKKCKISWIPFMQEKYTKPNGDKELSEAEKIMLSFHEEQEVLPETFLANFPSLIKMDIHKKVTDPSVAKSMMACLLSSLKANGSRGAFCEVRPDDKRILEFYSKLGCFEIAKMEGFPKDVVILGRSL",binding,binds
